Test results published in PubChem BioAssay AID493014 (National Center for Advancing Translational Sciences (NCATS), 2011).
About 170 (0.05%) of roughly 340,000 compounds were called active. Inconclusive results, whose numbers are uncertain, are shown with a selection of clear calls. Calls come from the whole dose curve; as a rule, active = well fitted inhibition curve with a large enough effect in the signal ratio, with a control signal flat (not every such curve was filed as active); inconclusive = small, poorly fitted or top-dose-only effect, or effect the other way, or a change in a side signal; inactive = flat fitted curve, though single readings scatter; the % refers to the signal ratio. Potencies beside an inconclusive call are fits to weak or partial responses and may not hold up.

Test: qHTS Assay to Find Inhibitors of Chronic Active B-Cell Receptor Signaling;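 for activity change, negative = inhibition: plate controls were basal doxycycline-induced cells for no effect and cells given 10 µM MG132 for full effect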
Details: ABC-DLBCL IkBa-CBG/CBR reporter, luminescence ratio (green luciferase fused to IkBa over red control in TMD8 lymphoma cells), 4 h; activity change, negative = inhibition: at 46.1 µM (top of the series)
In short: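 Compounds up to 46 uM were incubated four hours with TMD8 cells whose green CBG68 luciferase is fused to IkappaBalpha; red CBR luminescence normalised the signal, and concentration-effect curves were fitted to fusion, red and ratio data.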
Potency is the fitted concentration of half-maximal effect.

Compound | activity change, negative = inhibition | Potency
CC(NC(=O)CNC(=O)c1ccccc1Br)c1cccs1 (configuration not stated) | inconclusive: -1.04% | 
CCn1cc(/C=N/NC(=O)c2ccc3c(c2)OCO3)c(C)n1 |  | inconclusive: 23.1 µM [falling, partial curve, poor fit]
O=C1c2cc(F)ccc2OC2(CCNCC2)C12CC(c1ccccc1)=NO2 (configuration not stated) | inconclusive: -0.127% | 
COC(=O)c1sccc1NC(=O)c1ccncc1 | inconclusive: 2.75% | 
COc1cc(NC(=O)COC(=O)/C=C/c2c(C)nn(-c3ccc(F)cc3)c2Cl)cc(OC)c1 | inactive | 
C(/C=C/c1ccco1)=N/N1CCN(c2ccccc2)CC1 | inconclusive: 11.2% | 
Nc1oc2ccccc2c(=O)c1-c1ccc2c(c1)OCO2 | inactive | 
Nn1cnnc1SCC(=O)Nc1ccc(C2CCCCC2)cc1 | inconclusive: -0.545% | 
CCn1c(SCC(=O)Nc2sc3c(c2C#N)CCCC3)nnc1-c1ccco1 | inactive | 
N#CC1=C(N)NC(SCC(=O)Nc2ccccc2)=C(C#N)C12CCCCC2 |  | inconclusive: 29.1 µM [falling, single point]
COc1cc(SC)ccc1C(=O)NCc1ccccc1 | inconclusive: 3.36% | 
Cc1c(Br)c([N+](=O)[O-])nn1CC(=O)N1CCN(Cc2ccccc2)CC1 |  | inconclusive: 35.5 µM [falling, single point]
Cc1cc(Nc2ccccc2)n(-c2nc3ccccc3[nH]2)n1 |  | inconclusive: 29.1 µM [falling, single point]
O=C(COc1ccc2ccccc2c1)N1CCNCC1 | inconclusive: -16.2% | 
COc1ccc(CCNc2ncnc3c2c(-c2ccccc2)cn3-c2cccc(Cl)c2)cc1OC | inconclusive: 7.67% | 
COc1ccc(CN2CCNC(=O)C2CC(=O)NCc2cn3ccc(C)cc3n2)c(OC)c1 (configuration not stated) |  | inconclusive: 1.12 µM [rising, full curve, poor fit]
CN1CCN(C(=O)CCN2C(=O)/C(=C/c3ccccc3Cl)SC2=S)CC1 | inconclusive: 0.479% | 
CN(C)c1ccc(C(CNS(=O)(=O)c2ccc(F)c(F)c2)c2c[nH]c3ccccc23)cc1 (configuration not stated) | inconclusive: 0.852% | 
COc1cc(C2CC(=O)Oc3c(C(CCN4CCCC(C)C4)c4ccc(N(C)C)cc4)c(OC)cc(OC)c32)cc(OC)c1OC (configuration not stated) | inconclusive: 8.45% | 
O=C(CCS(=O)(=O)c1cccc2nsnc12)NC1CCCCCC1 | inconclusive: -21.2% | 
CCOC(=O)N1CCC(N(CCOC)C(=O)Nc2ccc(Cl)cc2)CC1 | inconclusive: 5.36% | 

Compound | activity change, negative = inhibition | Potency
CCOc1ccc(C(=O)NCCC2=CCCCC2)cc1OCC | inconclusive: 13.8% | 
Cc1ccc(C(=O)Nc2c(N)nc(SCC(=O)Nc3cc(C)on3)[nH]c2=O)cc1 | inconclusive: 0.285% | 
O=C(O)c1cccc(CN2C(=O)S/C(=C/c3ccccc3[N+](=O)[O-])C2=O)c1 | inconclusive: -8.81% | 
CC(=O)c1ccc(OCCOc2ccc(Cl)c3cccnc23)cc1 | inconclusive: -0.755% | 
C#C[C@]1(O)CC[C@H]2[C@@H]3CCC4=C(CCC(=O)C4)[C@H]3CC[C@@]21C |  | inconclusive: 3.55 µM [falling, partial curve]
CCCCNC(=O)COC(=O)c1cc(Br)ccc1Cl | inactive | 
O=C(c1ccc(Cl)c([N+](=O)[O-])c1)N1CCN(c2ccccn2)CC1 | inactive | 
O=[N+]([O-])c1cccc(-c2cc(-c3cc(Br)ccc3O)[nH]n2)c1 | inconclusive: 8.52% | 
CSCCC(NS(=O)(=O)c1ccc(C)cc1)C(=O)N1CCN(S(=O)(=O)c2ccc(F)cc2)CC1 (configuration not stated) | inconclusive: -2.1% | 
COC(=O)C1=C(C)OC(N)=C(C#N)C1c1ccc(OC)c(CSc2ccccn2)c1 (configuration not stated) | inactive | 
Cc1ccc(C)c(N2CCN(C(=O)c3ccc(CS(=O)(=O)c4ccccc4C)o3)CC2)c1 | inconclusive: -15.1% | 
C=C(C)COc1ccc(-c2n[nH]c(C)c2Oc2ccccc2OC)c(O)c1 | inconclusive: -13% | 
C/C(=N\NC(=S)NC(C)C)c1ccccc1 | inconclusive: -18.2% | 
Cc1nn(CCCC(=O)Nc2sc3c(c2C#N)CCC3)c(C)c1[N+](=O)[O-] | inconclusive: 7.03% | 
O=C(N/C(=N\O)c1ccccc1)Nc1ccc(Cl)cc1 | inconclusive: 17.3% | 
O=C(CCC1CCCN(C(=O)c2ccc3cc[nH]c3c2)C1)NCc1ccc(F)c(F)c1 (configuration not stated) | inconclusive: -6.26% | 
Cc1ccc(C(=O)COC(=O)CCN2C(=O)C3C4CC(C(Br)C4Br)C3C2=O)cc1 (configuration not stated) | inconclusive: 2.01% | 
Cc1[nH]c2ccc(C(=O)OCCN(C)C)cc2c1C | inconclusive: 4.77% | 
C=C(C)C(=O)Nc1ccc(NC(C)C)cc1 | inconclusive: 11.4% | 
COc1cccc(NC(=O)COC(=O)c2c(C)nn(-c3ccccc3)c2C)c1 | inconclusive: -20% | 
CCCN1C(=O)/C(=C/c2ccc(N3CCOCC3)cc2)NC1=S |  | inconclusive: 12.6 µM [rising, partial curve, poor fit]

Compound | activity change, negative = inhibition | Potency
NCCOc1ccc(C2CCCCC2)cc1 |  | inconclusive: 1.41 µM [activator, full curve, poor fit]
COc1ccc(S(=O)(=O)NC2(C(F)(F)F)NC(=O)N(CCc3ccc(OC)c(OC)c3)C2=O)cc1 (configuration not stated) | inactive | 
COc1cccc(NC(=O)C2CC(=O)N(C)C(=Nc3cccc(F)c3)S2)c1 (configuration not stated) | inconclusive: 3.16% | 
CS(=O)(=O)NCCc1csc2nc(-c3ccccc3)nn12 |  | inconclusive: 35.5 µM [rising, single point]
O=C(Nc1ccc2oc(-c3ccncc3)nc2c1)c1c(F)c(F)c(F)c(F)c1F |  | inconclusive: 0.103 µM [rising, full curve, poor fit]
O=C(N/N=C1\CCCc2c1[nH]c1ccc(Cl)cc21)c1ccncc1 | inconclusive: -22.1% | 
COc1ccc2nc(C)cc(N/N=C/c3ccccc3)c2c1 | inconclusive: -0.198% | 
NCC(O)(c1ccc(Cl)cc1)c1ccc(Cl)cc1 |  | inconclusive: 35.5 µM [falling, single point]
COc1ccc(NC(=O)CC(C)c2ccccc2)c([N+](=O)[O-])c1 (configuration not stated) | inconclusive: 5.29% | 
COc1ccc2c(c1)NC(c1cc(Cl)cc(Cl)c1O)c1cccn1-2 (configuration not stated) | inactive | 
Cc1ccc(-n2nc3ccc(NC(=O)C(C)C)cc3n2)cc1 | inconclusive: 5.84% | 
CN(Cc1ccccc1)C(=O)COC(=O)/C=C/c1ccco1 | inconclusive: -21.6% | 
COc1ccc(C2NN=C(c3ccc(C)cc3)S2)cc1OC (configuration not stated) |  | inconclusive: 25.1 µM [falling, single point]
O=S(=O)(c1ccccc1)N(Cc1ccccn1)Cc1ccccn1 | inconclusive: -0.64% | 
CSc1ccc(/C=C/c2ccc3cccc(O)c3n2)cc1 |  | inconclusive: 25.1 µM [falling, partial curve]
O=C(NC1CCOc2ccccc21)c1ccccn1 (configuration not stated) |  | inconclusive: 35.5 µM [falling, single point]
CCNC(=S)NNc1ccccc1 |  | inconclusive: 35.5 µM [cytotoxic, single point]
CCn1c(-c2cc(OC)c(OC)c(OC)c2)n[nH]c1=S | inconclusive: -11.4% | 
CSc1ccc(/C=N/Nc2cccc(C(=O)O)c2)cc1 | inconclusive: 288% | 
Cc1cc(C)nc(SCc2ccc(C(=O)NNC(=O)Nc3cccc(Cl)c3)cc2)n1 |  | inconclusive: 23.1 µM [falling, single point]
CCC1CCCCN1CCCNC(=O)Cn1ncc2c(C)n(Cc3ccccc3Cl)c(C)c2c1=O (configuration not stated) | inconclusive: -27% | 

Another view of seven compounds above:

| Compound | activity change, negative = inhibition | Potency |
| --- | --- | --- |
| C(/C=C/c1ccco1)=N/N1CCN(c2ccccc2)CC1 | inconclusive: 11.2% |  |
| Nc1oc2ccccc2c(=O)c1-c1ccc2c(c1)OCO2 | inactive |  |
| Nn1cnnc1SCC(=O)Nc1ccc(C2CCCCC2)cc1 | inconclusive: -0.545% |  |
| CCn1c(SCC(=O)Nc2sc3c(c2C#N)CCCC3)nnc1-c1ccco1 | inactive |  |
| N#CC1=C(N)NC(SCC(=O)Nc2ccccc2)=C(C#N)C12CCCCC2 |  | inconclusive: 29.1 µM [falling, single point] |
| COc1cc(SC)ccc1C(=O)NCc1ccccc1 | inconclusive: 3.36% |  |
| Cc1c(Br)c([N+](=O)[O-])nn1CC(=O)N1CCN(Cc2ccccc2)CC1 |  | inconclusive: 35.5 µM [falling, single point] |

Next results follow:

Compound | activity change, negative = inhibition | Potency
C=CCn1c(=NC(=O)C2COc3ccccc3O2)sc2cccc(OC)c21 (configuration not stated) | inactive | 
CCCCSc1ccc2nc(-c3ccc(C#N)cc3)cn2c1 | inactive | 
N#Cc1nc(-c2ccc(OCc3ccc(Cl)cc3)cc2)oc1NCCCn1ccnc1 | inconclusive: 10.7% | 
Cc1cccc2nc(-c3ccco3)c(Nc3ccccc3)n12 | inconclusive: 27.2% | 
COc1ccc(N=CC=C2OC(C)(C)C(C)(C)O2)cc1OC |  | inconclusive: 7.08 µM [falling, partial curve, poor fit]
Cc1onc(-c2c(F)cccc2Cl)c1C(=O)N(C)C1CCCCC1 | inactive | 
COc1cccc2c1C(=O)c1ccc3ccccc3c1C2=O | inactive | 
Nc1c(C(=O)O)sc2nc(-c3ccccc3)c3c(c12)CCCC3 | inactive | 
CCOC(=O)C1CCCc2c1[nH]c1c(C(N)=O)cccc21 (configuration not stated) |  | inconclusive: 0.58 µM [falling, full curve, poor fit]
Cc1ccc(N(C(=O)C(F)(F)F)C(C(=O)NC2CCCCC2)c2cccs2)cc1 (configuration not stated) | inconclusive: -23.3% | 
O=C(Nc1ccc(F)c(Cl)c1)c1nsc(Cl)c1Cl |  | inconclusive: 35.5 µM [falling, single point]
Cc1cc(N2C(=O)C3CCC(c4ccccc4)CC3C2=O)no1 (configuration not stated) | inconclusive: 7.39% | 
CCOCCCN(C)C1CCN(C(=O)c2oc3ccccc3c2NC(=O)Cc2ccc(F)cc2)CC1 | inconclusive: -14.6% | 
Cc1ccc(CNc2ccccc2C(=O)O)s1 | inactive | 
O=C(O)C1=C[C@H](c2csc3ccccc23)C[C@H](OCCCCO)O1 | inconclusive: -15.4% | 
CCOc1ccc2nc(NC(=O)CN3CCOCC3)sc2c1 |  | inconclusive: 15.8 µM [falling, partial curve, poor fit]
COCCNC(=O)CCSc1nc(-c2ccc(OC)cc2)cc(C(F)(F)F)n1 | inconclusive: 7.99% | 
Cc1ccc(Nc2c(-c3ccc(N4CCOCC4)cc3)nc3ncccn23)c(C)c1 | inactive | 
CC(C)N(C(=O)Cn1cc(S(=O)(=O)CC(=O)Nc2ccccc2)c2ccccc21)C(C)C | inconclusive: -12.1% | 
